The values that follow come from PMC4533223, “Structures of CD6 and Its Ligand CD166 Give Insight into Their Interaction” (Structure(London, England:1993), 2015).

For experiment [1], the target named is T1, human CD6 domains 1-3 plus stalk fused to rat CD4 domains 3 and 4 (CD6 d1-3S, wild type, S351) (human) (UniProt P30203).
T1 sequence (chain, biotin on the tag (immobilisation to streptavidin, Figure S1)): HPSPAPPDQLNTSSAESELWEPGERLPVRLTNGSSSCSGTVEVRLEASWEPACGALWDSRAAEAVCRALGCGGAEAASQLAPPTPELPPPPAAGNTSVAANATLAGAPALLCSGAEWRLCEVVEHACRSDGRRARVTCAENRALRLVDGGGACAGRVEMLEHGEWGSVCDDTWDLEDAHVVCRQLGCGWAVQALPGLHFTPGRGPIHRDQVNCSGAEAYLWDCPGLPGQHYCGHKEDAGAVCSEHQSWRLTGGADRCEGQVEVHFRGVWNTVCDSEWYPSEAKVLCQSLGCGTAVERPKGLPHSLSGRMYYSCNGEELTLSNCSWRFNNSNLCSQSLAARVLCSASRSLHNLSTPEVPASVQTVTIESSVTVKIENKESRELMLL
Kind of experiment: SPR; BIAcore 3000; CD6-CD4d3+4 chimeras (wild type and alanine mutants) immobilised via OX68 mAb; soluble CD166d1-5 injected at approximately the KD (0.1 µM); 25 °C, HBS-EP; equilibrium response as percent of wild type. On the technique in general: SPR reads the build-up and loss of mass on a sensor chip optically.

Experiment [2] deals with soluble recombinant human CD6 SRCR domains 1-3, His-tagged (human) (UniProt P30203). Kind of experiment: SEC-MALS; Superdex200 10/30 in 50 mM Tris.HCl, pH 7.5, 150 mM NaCl, 0.4 ml/min; CD6 alone 39 µM, CD166 VVC alone 28 µM, equimolar mixture 27 µM each; samples diluted approximately 10-fold on the column; both purified. On the technique in general: Size exclusion chromatography separates by hydrodynamic size, large species first.

Experiment [3] deals with T2, human CD166 extracellular region fused to rat CD4 domains 3 and 4 (CD166-CD4d3+4), wild type (human) (UniProt Q13740).
T2 sequence: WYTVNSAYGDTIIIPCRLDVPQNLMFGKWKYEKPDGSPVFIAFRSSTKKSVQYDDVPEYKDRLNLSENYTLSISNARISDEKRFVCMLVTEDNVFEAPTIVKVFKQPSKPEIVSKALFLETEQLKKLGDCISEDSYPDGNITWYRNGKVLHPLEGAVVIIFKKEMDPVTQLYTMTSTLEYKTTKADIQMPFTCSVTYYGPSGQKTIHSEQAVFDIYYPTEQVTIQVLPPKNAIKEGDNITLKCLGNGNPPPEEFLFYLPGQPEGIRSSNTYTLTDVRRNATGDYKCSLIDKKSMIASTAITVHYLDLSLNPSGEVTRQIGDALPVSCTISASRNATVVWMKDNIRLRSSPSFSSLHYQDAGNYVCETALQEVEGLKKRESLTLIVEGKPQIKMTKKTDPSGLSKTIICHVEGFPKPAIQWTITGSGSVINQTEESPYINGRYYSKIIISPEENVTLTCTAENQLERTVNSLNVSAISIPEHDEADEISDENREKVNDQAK
Kind of experiment: SPR; BIAcore 3000; CD166-CD4d3+4 chimeras (wild type and mutants) immobilised via OX68 antibody; soluble CD6 His injected at approximately the KD (0.1 µM); 25 °C, HBS-EP; equilibrium response as percent of wild type; only the binder purified.

Results are given in words; binding and its absence hold for the method and conditions named. Some entries that bind do so weakly or less than the wild type. Where a sequence is shown, tags or fusion partners need not be part of it.

B1: soluble human CD166 domains 1-5 (CD166d1-5), 6 His tagged (domain or fragment, UniProt Q13740 28-527)
chain: WYTVNSAYGDTIIIPCRLDVPQNLMFGKWKYEKPDGSPVFIAFRSSTKKSVQYDDVPEYKDRLNLSENYTLSISNARISDEKRFVCMLVTEDNVFEAPTIVKVFKQPSKPEIVSKALFLETEQLKKLGDCISEDSYPDGNITWYRNGKVLHPLEGAVVIIFKKEMDPVTQLYTMTSTLEYKTTKADIQMPFTCSVTYYGPSGQKTIHSEQAVFDIYYPTEQVTIQVLPPKNAIKEGDNITLKCLGNGNPPPEEFLFYLPGQPEGIRSSNTYTLTDVRRNATGDYKCSLIDKKSMIASTAITVHYLDLSLNPSGEVTRQIGDALPVSCTISASRNATVVWMKDNIRLRSSPSFSSLHYQDAGNYVCETALQEVEGLKKRESLTLIVEGKPQIKMTKKTDPSGLSKTIICHVEGFPKPAIQWTITGSGSVINQTEESPYINGRYYSKIIISPEENVTLTCTAENQLERTVNSLNVSAISIPEHDEADEISDENREKVNDQAK
On to B1, for which, in experiment [1], the binding entry is “binds”.

B2: soluble recombinant human CD6 SRCR domains 1-3, His-tagged (domain or fragment, UniProt P30203 18-364)
chain: HPSPAPPDQLNTSSAESELWEPGERLPVRLTNGSSSCSGTVEVRLEASWEPACGALWDSRAAEAVCRALGCGGAEAASQLAPPTPELPPPPAAGNTSVAANATLAGAPALLCSGAEWRLCEVVEHACRSDGRRARVTCAENRALRLVDGGGACAGRVEMLEHGEWGSVCDDTWDLEDAHVVCRQLGCGWAVQALPGLHFTPGRGPIHRDQVNCSGAEAYLWDCPGLPGQHYCGHKEDAGAVCSEHQSWRLTGGADRCEGQVEVHFRGVWNTVCDSEWYPSEAKVLCQSLGCGTAVERPKGLPHSLSGRMYYSCNGEELTLSNCSWRFNNSNLCSQSLAARVLCSASR
Consider B2, for which the binding entry is “binds weakly” in experiment [2] and “binds” in experiment [3].
